Measured values taken from patent US20160222434A1.
No constants are given. Whether binding was seen depends on the method and setting. Some binding calls cover weakened binding; strength is not graded here.

Protein sequences, listed by entry. Tags and fused reporters are not part of them.
UniProt P19821: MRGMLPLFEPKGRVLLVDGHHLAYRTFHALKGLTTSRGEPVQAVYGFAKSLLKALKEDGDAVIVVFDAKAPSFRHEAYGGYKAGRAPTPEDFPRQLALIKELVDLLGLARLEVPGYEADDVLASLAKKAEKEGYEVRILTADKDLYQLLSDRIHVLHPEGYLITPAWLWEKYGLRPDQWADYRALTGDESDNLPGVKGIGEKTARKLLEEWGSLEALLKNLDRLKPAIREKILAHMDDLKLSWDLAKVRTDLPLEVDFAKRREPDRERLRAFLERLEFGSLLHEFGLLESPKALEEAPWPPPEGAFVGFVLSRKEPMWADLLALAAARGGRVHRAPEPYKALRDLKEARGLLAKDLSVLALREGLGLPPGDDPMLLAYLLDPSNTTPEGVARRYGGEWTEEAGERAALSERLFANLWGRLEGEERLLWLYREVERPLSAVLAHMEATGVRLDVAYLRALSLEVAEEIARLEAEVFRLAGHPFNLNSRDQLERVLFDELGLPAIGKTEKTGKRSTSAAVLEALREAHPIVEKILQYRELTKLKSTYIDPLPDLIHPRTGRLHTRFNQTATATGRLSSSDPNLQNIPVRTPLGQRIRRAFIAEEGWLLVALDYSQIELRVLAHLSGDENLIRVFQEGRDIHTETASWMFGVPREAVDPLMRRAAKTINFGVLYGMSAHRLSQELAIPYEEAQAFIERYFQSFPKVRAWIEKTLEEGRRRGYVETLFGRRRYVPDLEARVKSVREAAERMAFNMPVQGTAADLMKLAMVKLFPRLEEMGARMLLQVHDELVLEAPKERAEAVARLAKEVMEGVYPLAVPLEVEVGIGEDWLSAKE

Assays:
[1] = target: Taq DNA polymerase (Thermus aquaticus) (UniProt P19821); experiment: native (non-denaturing) PAGE of Taq with EP020
[2] = target: Taq DNA polymerase (Thermus aquaticus) (UniProt P19821); experiment: native (non-denaturing) PAGE band shift; EP020:Taq 0.5:1 (2.5 uM:5 uM) and 0.25:1 (2.5 uM:10 uM)
[3] = target: Taq DNA polymerase (Thermus aquaticus) (UniProt P19821); experiment: native (non-denaturing) PAGE band shift; 20 uM Taq with 10, 15 or 20 uM blocked 26-bp dsDNA oligomer
[4] = target: Taq DNA polymerase (Thermus aquaticus) (UniProt P19821); experiment: native (non-denaturing) PAGE band shift; 5 uM Taq with EP020 Type B Reagent at or above the Taq concentration (up to 10:1)

Measured: binding

Taq DNA polymerase (from UniProt P19821 1-832) (enzyme)
binds: [1] | [2] | [3] | [4]
